Results of single-concentration screens

Chains of the proteins cited; added tags and fusions are not shown.
UniProt P9WPC5, whole entry: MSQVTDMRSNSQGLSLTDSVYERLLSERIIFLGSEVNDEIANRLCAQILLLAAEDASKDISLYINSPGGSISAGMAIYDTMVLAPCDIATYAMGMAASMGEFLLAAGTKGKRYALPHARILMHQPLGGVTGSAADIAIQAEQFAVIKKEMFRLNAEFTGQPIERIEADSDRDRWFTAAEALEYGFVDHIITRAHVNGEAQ
UniProt P9WPC3, whole entry partner: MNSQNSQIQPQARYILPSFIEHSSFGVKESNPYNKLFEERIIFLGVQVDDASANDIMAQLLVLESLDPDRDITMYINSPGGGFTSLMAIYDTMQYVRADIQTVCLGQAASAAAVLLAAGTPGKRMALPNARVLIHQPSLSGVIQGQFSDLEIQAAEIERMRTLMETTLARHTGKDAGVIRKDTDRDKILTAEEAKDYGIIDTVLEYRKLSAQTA
UniProt P9WNZ1, whole entry: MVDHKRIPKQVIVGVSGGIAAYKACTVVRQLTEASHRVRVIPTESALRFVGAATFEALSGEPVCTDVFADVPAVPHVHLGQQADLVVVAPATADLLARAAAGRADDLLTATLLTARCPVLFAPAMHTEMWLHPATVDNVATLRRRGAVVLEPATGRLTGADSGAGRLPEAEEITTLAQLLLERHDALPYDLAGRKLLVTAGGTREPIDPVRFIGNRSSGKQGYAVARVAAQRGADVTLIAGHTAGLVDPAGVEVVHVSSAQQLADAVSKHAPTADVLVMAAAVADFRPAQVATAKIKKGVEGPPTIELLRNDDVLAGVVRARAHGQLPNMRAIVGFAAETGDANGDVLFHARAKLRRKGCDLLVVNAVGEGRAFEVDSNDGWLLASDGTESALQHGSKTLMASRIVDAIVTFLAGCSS

Toxoplasma: 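Assay of Toxoplasma gondii numbers, read through their beta-galactosidase reporter with a colour substrate. Tested at 10 µM. Higher reads as fewer parasites (inferred from which compounds were picked for retests). Of about 67,000 compounds tested this way, about 260 (0.38%) reached 50% or more in at least one test.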
ClpP1P2: 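Protease assay of ClpP1P2, read by the AMC dye that it sets free. Target: ClpP1P2, Mycobacterium tuberculosis (UniProt P9WPC5 and UniProt P9WPC3). Compounds at 50 µM. Direction is inferred from only a few compounds that gave an IC50; most scored high, so higher reads as stronger inhibition. Most other retested compounds had strongly negative values. Of about 69,000 compounds tested this way, about 10 (0.015%) reached 50% or more in at least one test.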
T. brucei: 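Whole-parasite assay of Trypanosoma brucei over 72 hours; the read-out is not stated. Compounds at 30 µM. Direction is inferred from retests: higher values go with stronger inhibition. Values scatter widely below zero; nearly all retest evidence comes from the higher of the two concentrations used. About 64,000 compounds were tested under these conditions; 1.5% (about 940) showed 50% or more at least once.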
CoaBC: 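Enzyme assay of CoaBC with a phosphate dye (Biomol Green) read at 650 nm. Target: Coenzyme A biosynthesis protein CoaBC, Mycobacterium tuberculosis (UniProt P9WNZ1). Tested at 30 µM. Higher reads as stronger inhibition, judged from the few compounds that gave an IC50. Most strong results did not repeat in a second test. Of about 67,000 compounds tested this way, about 40 (0.06%) reached 50% or more in at least one test.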

Values are the deposited “Percent Effect”, in %. The record does not define 0% and 100%; most values in the screen are far below 50% and negative numbers occur (in some assays of this library far below -100). This is an unselected part of the compounds tested. A dash means the value is not listed here; it may have been measured.

{"smiles": "C[C@@H](NC(=O)c1cnccn1)c1c(-c2ccc(Cl)cc2)noc1C(=O)O", "ClpP1P2": -2.602, "CoaBC": 12.42}
{"smiles": "O=C(NCCNc1ncccn1)N1CCN(c2nccs2)CC1", "Toxoplasma": 11.21, "ClpP1P2": -25.06, "T. brucei": -23.3, "CoaBC": -5.937}
{"smiles": "O=C(COCc1ccccc1)NCc1ccc(O)c(F)c1", "Toxoplasma": 6.885, "ClpP1P2": -16.07, "T. brucei": -3.679, "CoaBC": -7.771}
{"smiles": "Cl.Cl.O[C@@H]1C[C@@](CNCc2ccc(F)cc2)(COc2cccnc2)C[C@@H]1O", "Toxoplasma": -7.712, "T. brucei": -7.741}
{"smiles": "N#Cc1cccnc1OC1CCN(S(=O)(=O)c2ccc(F)c(Cl)c2)CC1", "Toxoplasma": 1.126, "ClpP1P2": -6.874, "T. brucei": -13.8, "CoaBC": 4.707}
{"smiles": "CCN(CC)C1(Cc2cc(CC(C)C)on2)COC1", "Toxoplasma": -4.041, "ClpP1P2": -7.65, "T. brucei": 0.8371, "CoaBC": 11.98}
{"smiles": "Cc1nc(CN2CCCn3c(nc(Cn4cncn4)cc3=O)C2)cs1", "ClpP1P2": 8.727, "CoaBC": -1.062}
{"smiles": "Cc1ncnc2c1CCN(CC1CCOC1)CC2.O=C(O)C(F)(F)F", "stereo": "stereo not given", "Toxoplasma": -4.503, "T. brucei": -24.87}
{"smiles": "O=C(O)c1ccnc(SCC(=O)c2ccccc2)c1", "Toxoplasma": 9.626, "ClpP1P2": 22.98, "T. brucei": -22.27, "CoaBC": 19.02}
{"smiles": "Cc1noc(C)c1-c1ccc(C2CCCN2C(=O)c2cnn(C)c2)nc1", "stereo": "stereo not given", "Toxoplasma": -9.948, "ClpP1P2": -3.161, "T. brucei": -10.52, "CoaBC": -2.19}
{"smiles": "COCCCN(CCOC)C(=O)Nc1ccccc1-n1cccn1", "Toxoplasma": 17.03, "ClpP1P2": -0.05839, "T. brucei": 2.674, "CoaBC": -3.73}
{"smiles": "Cc1cccc(NC2CCN(C(=O)Nc3cc(F)ccc3F)CC2)n1", "Toxoplasma": 7.727, "ClpP1P2": -0.4742, "T. brucei": 5.106, "CoaBC": 10.96}
{"smiles": "Cc1cc(CN[C@H](C(N)=O)[C@@H](C)O)c(C)s1", "Toxoplasma": 0.1326, "ClpP1P2": -18.13, "T. brucei": -19.59, "CoaBC": 3.846}
{"smiles": "Cc1nc(C)n(CC2CN(Cc3ccccc3OC(C)C)CCO2)n1", "stereo": "stereo not given", "Toxoplasma": -8.562, "ClpP1P2": -3.928, "T. brucei": 101, "CoaBC": 5.346}
{"smiles": "Cc1cc(N(C)C)nc(N2CCn3c(nnc3C(C)C)C2)n1", "Toxoplasma": -1.391, "ClpP1P2": 1.991, "T. brucei": -20.25, "CoaBC": -0.3686}
{"smiles": "O=C(CCn1cccn1)N1CCC(c2nnc(-c3ccccn3)o2)CC1", "Toxoplasma": 6.951, "ClpP1P2": -5.828, "T. brucei": 1.46, "CoaBC": -8.631}
{"smiles": "O=S(=O)(NC1CCOC1)c1ccc(C(F)(F)F)nc1", "stereo": "stereo not given", "Toxoplasma": -6.418, "ClpP1P2": -16.78, "T. brucei": -39.36, "CoaBC": 0.3774}

For reference, 2 entries once more:

SMILES,Toxoplasma,ClpP1P2,T. brucei,CoaBC
Cc1nc(CN2CCCn3c(nc(Cn4cncn4)cc3=O)C2)cs1,-,8.727%,-,-1.062%
Cc1noc(C)c1-c1ccc(C2CCCN2C(=O)c2cnn(C)c2)nc1 (stereo not given),-9.948%,-3.161%,-10.52%,-2.19%

Measurements from “University of Dundee, Small-Polar-MMV Screening Library” (2021), ChEMBL document CHEMBL3988442.